# Percent effect of library compounds

T. brucei: 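Whole-parasite assay of Trypanosoma brucei over 72 hours; the read-out is not stated. Compounds at 30 µM. The record gives no direction; compounds that gave an IC50 in retests scored well above the rest, so higher reads as stronger inhibition. Values scatter widely below zero; nearly all retest evidence comes from the higher of the two concentrations used. About 64,000 compounds were tested under these conditions; 1.5% (about 940) showed 50% or more at least once.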
Toxoplasma: 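Assay of Toxoplasma gondii numbers, read through their beta-galactosidase reporter with a colour substrate. Concentration: 10 µM. Higher reads as fewer parasites (inferred from which compounds were picked for retests). About 67,000 compounds were tested under these conditions; 0.38% (about 260) showed 50% or more at least once.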

Each number is a percent effect as filed.
How 0% and 100% were set is not recorded. Most values in the screen are low, and negative values occur.
This is an unselected part of the compounds tested.
A dash means the value is not listed here; it may have been measured.

| compound | T. brucei | Toxoplasma |
|---|---|---|
| `O=C(c1cc(-c2cccs2)on1)N1CCCCC1Cn1cccn1` (stereo unspecified) | -13.16% | 5.339% |
| `CN1CCN(c2cc(CNC(=O)c3ccsc3)ccn2)CC1` | - | -37.55% |
| `CCn1ccc(C(=O)N2CCOC(c3nc(-c4cccs4)no3)C2)n1` (stereo unspecified) | 21.37% | -11.63% |
| `Cc1cnc(CNCc2cn(CCN3CCSCC3)nc2C)cn1` | -84.59% | 31.01% |
| `Cc1cnn(CC(=O)NCC2CCN(c3cc(Cl)ccc3C)C2)c1` (stereo unspecified) | 21.74% | 21.52% |
| `O=C(c1ccco1)N1CCCC(c2cc(C(F)(F)F)[nH]n2)C1` (stereo unspecified) | 21.68% | 3.215% |
| `Cc1nc(C)n(C2CCCN(C(=O)CCc3cscn3)C2)n1` (stereo unspecified) | -89.77% | 12.47% |
| `Cc1nn(C)c(C)c1NC(=O)CN1CCOC(CN(C)C)C1` (stereo unspecified) | -9.246% | 14.18% |
| `Cc1nc2n(n1)CC(Nc1ncnc3c1CCC3)CC2` (stereo unspecified) | - | -6.918% |
| `CC(C)CN1CCC(NC(=O)c2ccc(F)cc2I)CC1` | 77.98% | 9.596% |
| `Cc1nc(O)cc(CCNc2nccc(CCC(F)(F)F)n2)n1` | -102.9% | -4.732% |
| `CCS(=O)(=O)N1CCC(Nc2c(F)cc(C#N)cc2F)CC1` | 10.46% | 5.294% |
| `Cc1nccn1-c1ccc(NC(=O)C2CCCN2Cc2ccoc2)cc1` (stereo unspecified) | -1.302% | -5.652% |
| `COC(=O)CN(C(=O)c1ccc(Cl)cn1)c1cccc(F)c1` | -7.921% | -9.214% |
| `Cc1cnc(C(=O)N2CCCCC2c2nc(C)cs2)cn1` (stereo unspecified) | - | -26.63% |
| `COc1cc(C)nc(N2CCN(C(=O)COC3CCCC3)CC2)n1` | - | -4.109% |
| `CN(CCn1ccc2ccccc21)C(=O)Cc1n[nH]c(=O)[nH]1` | -16.81% | 11.58% |
| `O=C(NC1(c2cccc(F)c2)CCOCC1)c1ccccn1` | -44% | 23.32% |
| `CN(C)c1cc(C2CCCN(S(=O)(=O)c3cn(C)cn3)C2)ccn1` (stereo unspecified) | -10.7% | 3.933% |
| `Cc1ccc(N2CCCN(C(=O)CCC3CCCO3)CC2)nn1` (stereo unspecified) | -8.792% | -12.14% |
| `CC(C)[C@@H]1CN(c2ccc(F)cn2)C[C@H]1NS(C)(=O)=O` | -68.19% | 5.567% |
| `CC(C)CC(C)N(C)Cc1nnc(-c2ccco2)o1` (stereo unspecified) | -63.12% | -1.966% |
| `O=C(O)C(F)(F)F.O=C(O)C(F)(F)F.O=C(O)C(F)(F)F.[H][C@@]12OCCN(Cc3cccc(C)n3)[C@@]1([H])CC[C@@H]2OCc1ccncc1` | -64.9% | -22.07% |
| `COc1ccc(OC)c(NC(=O)CSc2ccc3nncn3n2)c1` | -6.046% | - |
| `O=C(CC1CN(Cc2ccccc2)CCO1)NC1CCCC1` (stereo unspecified) | -2.459% | -13.24% |
| `CC(C)(C)Oc1ccc(NCC(=O)NCc2ccco2)cc1` | -26.02% | -3.294% |
| `CC(NCc1cccc2c1OCCO2)c1cc2c(cc1Br)OCCO2` (stereo unspecified) | -0.178% | 2.324% |
| `CCS(=O)(=O)N1CCCC(c2nc3ccccc3n2C(C)C)C1` (stereo unspecified) | 11.21% | -8.834% |
| `CN(C)Cc1cccc(-c2cccnc2C(=O)NCC2CC2)c1` | -6.816% | 14.06% |
| `CNc1cncc(C2CCCN2C(=O)c2ccc3c(c2)OCCO3)n1` (stereo unspecified) | -12.36% | 23.3% |
| `CC(C)N1CCC(CN2CCn3nc(CNC(=O)N(C)C)cc3C2)CC1` | -37.7% | -1.703% |
| `Cn1nc(C(=O)N2CC(Oc3nc4c(Cl)cccc4s3)C2)ccc1=O` | 1.74% | 1.645% |
| `Cl.Cn1cc(CN(Cc2ccccc2)Cc2ccccn2)cn1` | -17.42% | 18.78% |
| `CC(Cn1cccn1)NC(=O)NCc1ccccn1` (stereo unspecified) | -17.68% | -23.88% |
| `O=C(O)C(F)(F)F.O=C(O)C(F)(F)F.[H][C@@]12OCCN(C3CCC3)[C@@]1([H])CC[C@@H]2Oc1cccnc1` | -19.48% | 3.107% |
| `CCN1CCN(C2CCN(Cc3nnc(C(C)C)o3)CC2)C1=O` | - | -8.556% |
| `CC(=O)NC1CCN(C(=O)Nc2cccc(SC(F)F)c2)CC1` | 6.887% | -4.075% |
| `CNc1cncc(C2CCCN2c2cc(C)ncn2)n1` (stereo unspecified) | -28.31% | 23.61% |
| `O=C(O)CCc1ccc(S(=O)(=O)Nc2cnn(CC(F)(F)F)c2)cc1` | 1.098% | 3.711% |
| `CC(=O)N1CCN(c2ccccc2CNc2cc(F)cc(F)c2)CC1` | 45.53% | -3.861% |
| `Cc1csc(N2CCN(CC(=O)Nc3c(C)n[nH]c3C)CC2C)n1` (stereo unspecified) | -29.02% | 2.908% |
| `Nc1cc2c(nn1)CCN(C(=O)c1csc(-c3ccccc3)n1)C2` | 20.82% | 1.277% |
| `O=S(=O)(NCCC(O)c1cccs1)c1c(F)cccc1F` (stereo unspecified) | 14.66% | 7.465% |
| `COCCN(Cc1ccco1)Cc1nc(-c2ccccc2C)no1` | -35.06% | -0.947% |
| `CC(C)(C)c1nc(CN(CCO)Cc2cc(Br)ccc2F)no1` | - | 7.976% |

Once more, the final 4:

{"compound": "Nc1cc2c(nn1)CCN(C(=O)c1csc(-c3ccccc3)n1)C2", "T. brucei": 20.82, "Toxoplasma": 1.277}
{"compound": "O=S(=O)(NCCC(O)c1cccs1)c1c(F)cccc1F", "stereo": "stereo unspecified", "T. brucei": 14.66, "Toxoplasma": 7.465}
{"compound": "COCCN(Cc1ccco1)Cc1nc(-c2ccccc2C)no1", "T. brucei": -35.06, "Toxoplasma": -0.947}
{"compound": "CC(C)(C)c1nc(CN(CCO)Cc2cc(Br)ccc2F)no1", "Toxoplasma": 7.976}

Source: ChEMBL document CHEMBL3988442, “University of Dundee, Small-Polar-MMV Screening Library” (2021).